In article PMC8729806:
These are yes or no findings as the source states them, for the method shown. Some binding calls cover weakened binding; strength is not graded here.

Target: CsgA from E. coli (residues 21-151), without its signal sequence (E. coli), P28307
Experiment: SPR; Biacore 2000; freshly desalted CsgA and FapC immobilised on a CM5 chip by amine coupling; running buffer 10 mM HEPES pH 7.4, 150 mM NaCl, 3 mM EDTA, 0.05% BSA; chaperones injected in serial dilutions (DNAJB6, Bri and CsgC 10-2000 nM; S100A9, TTR and MTTR 5-70 μM) at 20 μl/min; 1:1 binding …; both purified
Conditions: remark: other sources report otherwise

B1: CsgC, P52107 9-110 (protein)
chain: ALSSQITFNTTQQGDVYTIIPEVTLTQSCLCRVQILSLREGSSGQSQTKQEKTLSLPANQPIALTKLSLNISPDDRVKIVVTVSDGQSLHLSQQWPPSSEKS
modifications: here or on the partner: Alexa Fluor 546 label (peptide array only)
binding: binds
